Some results were stated once for a whole list of compounds, not compound by compound.
Target: T1, glucocorticoid receptor (Homo sapiens, UniProt P04150)
T1 construct: a partially purified full length glucocorticoid receptor
T1 sequence (P04150 1-777): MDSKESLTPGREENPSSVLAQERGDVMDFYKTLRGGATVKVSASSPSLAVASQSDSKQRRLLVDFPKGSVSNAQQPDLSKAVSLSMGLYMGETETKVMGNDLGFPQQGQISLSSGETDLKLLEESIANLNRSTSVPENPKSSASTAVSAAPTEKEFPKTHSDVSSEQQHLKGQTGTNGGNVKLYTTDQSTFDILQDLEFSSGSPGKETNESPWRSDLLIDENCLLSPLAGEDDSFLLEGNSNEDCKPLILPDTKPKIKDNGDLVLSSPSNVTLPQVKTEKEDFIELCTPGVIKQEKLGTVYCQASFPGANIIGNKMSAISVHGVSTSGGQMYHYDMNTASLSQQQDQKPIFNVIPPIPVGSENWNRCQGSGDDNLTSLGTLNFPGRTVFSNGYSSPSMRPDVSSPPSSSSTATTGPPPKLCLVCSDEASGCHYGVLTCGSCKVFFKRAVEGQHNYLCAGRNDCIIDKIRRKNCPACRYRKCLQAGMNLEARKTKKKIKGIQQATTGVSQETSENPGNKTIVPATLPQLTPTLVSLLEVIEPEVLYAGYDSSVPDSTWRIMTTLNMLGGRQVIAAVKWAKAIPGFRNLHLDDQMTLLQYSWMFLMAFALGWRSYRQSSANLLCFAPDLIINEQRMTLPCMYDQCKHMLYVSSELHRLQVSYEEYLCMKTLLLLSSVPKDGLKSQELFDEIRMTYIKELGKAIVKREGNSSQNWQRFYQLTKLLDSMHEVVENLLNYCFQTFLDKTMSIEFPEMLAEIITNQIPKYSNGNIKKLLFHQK
Test: Glucocorticoid Receptor Binding Assay (fluorescence polarisation competition)
Settings: competition with Alexa 555 fluorescently-labelled dexamethasone derivative; partially purified full length glucocorticoid receptor; 2 hours room temperature

SMILES | glucocorticoid binding pIC50
CCN(CC(O)(CNc1cccc2c1cnn2-c1ccc(F)cc1)C(F)(F)F)C(=O)c1ccccc1 (centres unmarked) [Example 5, N-Ethyl-N-[3,3,3-trifluoro-2-({[1-(4-fluorophenyl)-1H-indazol-4-yl]amino}methyl)-2-hydroxypropyl]benzamide] | ≥ 7
CCN(CC(O)(CNc1cc(C)cc2c1cnn2-c1ccc(F)cc1)C(F)(F)F)C(=O)c1cccs1 (centres unmarked) [Example 20, N-Ethyl-N-[3,3,3-trifluoro-2-({[1-(4-fluorophenyl)-6-methyl-1H-indazol-4-yl]amino}methyl)-2-hydroxypropyl]-2-thiophenecarboxamide] | ≥ 7
